Results are given in words; binding and its absence hold for the method and conditions named. In cells and extracts the contact can be indirect. Some entries that bind do so weakly or less than the wild type.

Sequences of proteins named here, by UniProt entry; tags and fusion partners are left off. A change or cut given only in a name is not applied to a line headed by its entry. A line that says so, or that is headed by a name, gives the form on record, which may keep a tag or linker.
UniProt Q96IY1: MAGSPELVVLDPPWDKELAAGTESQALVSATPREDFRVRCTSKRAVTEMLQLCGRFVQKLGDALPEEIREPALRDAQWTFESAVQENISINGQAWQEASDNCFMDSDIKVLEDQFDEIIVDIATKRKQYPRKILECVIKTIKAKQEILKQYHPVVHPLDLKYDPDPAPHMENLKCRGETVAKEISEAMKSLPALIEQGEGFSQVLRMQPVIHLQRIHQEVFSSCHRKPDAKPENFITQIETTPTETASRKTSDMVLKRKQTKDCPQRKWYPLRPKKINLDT
GFP-NSL1^2TD (Q96IY1, form named): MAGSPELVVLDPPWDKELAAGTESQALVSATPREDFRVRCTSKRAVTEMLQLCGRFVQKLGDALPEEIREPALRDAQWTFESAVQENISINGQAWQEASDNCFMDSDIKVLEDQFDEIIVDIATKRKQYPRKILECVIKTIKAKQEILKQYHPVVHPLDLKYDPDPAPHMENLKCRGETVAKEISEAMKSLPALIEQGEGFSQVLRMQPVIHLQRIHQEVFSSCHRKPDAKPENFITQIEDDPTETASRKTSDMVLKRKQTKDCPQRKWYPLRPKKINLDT
GFP-NSL1^2TA (Q96IY1, form named): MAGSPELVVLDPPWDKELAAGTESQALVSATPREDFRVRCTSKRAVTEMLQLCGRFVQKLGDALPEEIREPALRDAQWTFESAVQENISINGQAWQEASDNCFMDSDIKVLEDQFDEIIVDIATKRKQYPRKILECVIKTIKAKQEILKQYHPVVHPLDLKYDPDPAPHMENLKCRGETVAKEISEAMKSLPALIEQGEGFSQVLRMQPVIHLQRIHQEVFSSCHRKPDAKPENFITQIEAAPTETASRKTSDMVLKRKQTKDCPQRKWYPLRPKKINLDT
UniProt Q8NG31: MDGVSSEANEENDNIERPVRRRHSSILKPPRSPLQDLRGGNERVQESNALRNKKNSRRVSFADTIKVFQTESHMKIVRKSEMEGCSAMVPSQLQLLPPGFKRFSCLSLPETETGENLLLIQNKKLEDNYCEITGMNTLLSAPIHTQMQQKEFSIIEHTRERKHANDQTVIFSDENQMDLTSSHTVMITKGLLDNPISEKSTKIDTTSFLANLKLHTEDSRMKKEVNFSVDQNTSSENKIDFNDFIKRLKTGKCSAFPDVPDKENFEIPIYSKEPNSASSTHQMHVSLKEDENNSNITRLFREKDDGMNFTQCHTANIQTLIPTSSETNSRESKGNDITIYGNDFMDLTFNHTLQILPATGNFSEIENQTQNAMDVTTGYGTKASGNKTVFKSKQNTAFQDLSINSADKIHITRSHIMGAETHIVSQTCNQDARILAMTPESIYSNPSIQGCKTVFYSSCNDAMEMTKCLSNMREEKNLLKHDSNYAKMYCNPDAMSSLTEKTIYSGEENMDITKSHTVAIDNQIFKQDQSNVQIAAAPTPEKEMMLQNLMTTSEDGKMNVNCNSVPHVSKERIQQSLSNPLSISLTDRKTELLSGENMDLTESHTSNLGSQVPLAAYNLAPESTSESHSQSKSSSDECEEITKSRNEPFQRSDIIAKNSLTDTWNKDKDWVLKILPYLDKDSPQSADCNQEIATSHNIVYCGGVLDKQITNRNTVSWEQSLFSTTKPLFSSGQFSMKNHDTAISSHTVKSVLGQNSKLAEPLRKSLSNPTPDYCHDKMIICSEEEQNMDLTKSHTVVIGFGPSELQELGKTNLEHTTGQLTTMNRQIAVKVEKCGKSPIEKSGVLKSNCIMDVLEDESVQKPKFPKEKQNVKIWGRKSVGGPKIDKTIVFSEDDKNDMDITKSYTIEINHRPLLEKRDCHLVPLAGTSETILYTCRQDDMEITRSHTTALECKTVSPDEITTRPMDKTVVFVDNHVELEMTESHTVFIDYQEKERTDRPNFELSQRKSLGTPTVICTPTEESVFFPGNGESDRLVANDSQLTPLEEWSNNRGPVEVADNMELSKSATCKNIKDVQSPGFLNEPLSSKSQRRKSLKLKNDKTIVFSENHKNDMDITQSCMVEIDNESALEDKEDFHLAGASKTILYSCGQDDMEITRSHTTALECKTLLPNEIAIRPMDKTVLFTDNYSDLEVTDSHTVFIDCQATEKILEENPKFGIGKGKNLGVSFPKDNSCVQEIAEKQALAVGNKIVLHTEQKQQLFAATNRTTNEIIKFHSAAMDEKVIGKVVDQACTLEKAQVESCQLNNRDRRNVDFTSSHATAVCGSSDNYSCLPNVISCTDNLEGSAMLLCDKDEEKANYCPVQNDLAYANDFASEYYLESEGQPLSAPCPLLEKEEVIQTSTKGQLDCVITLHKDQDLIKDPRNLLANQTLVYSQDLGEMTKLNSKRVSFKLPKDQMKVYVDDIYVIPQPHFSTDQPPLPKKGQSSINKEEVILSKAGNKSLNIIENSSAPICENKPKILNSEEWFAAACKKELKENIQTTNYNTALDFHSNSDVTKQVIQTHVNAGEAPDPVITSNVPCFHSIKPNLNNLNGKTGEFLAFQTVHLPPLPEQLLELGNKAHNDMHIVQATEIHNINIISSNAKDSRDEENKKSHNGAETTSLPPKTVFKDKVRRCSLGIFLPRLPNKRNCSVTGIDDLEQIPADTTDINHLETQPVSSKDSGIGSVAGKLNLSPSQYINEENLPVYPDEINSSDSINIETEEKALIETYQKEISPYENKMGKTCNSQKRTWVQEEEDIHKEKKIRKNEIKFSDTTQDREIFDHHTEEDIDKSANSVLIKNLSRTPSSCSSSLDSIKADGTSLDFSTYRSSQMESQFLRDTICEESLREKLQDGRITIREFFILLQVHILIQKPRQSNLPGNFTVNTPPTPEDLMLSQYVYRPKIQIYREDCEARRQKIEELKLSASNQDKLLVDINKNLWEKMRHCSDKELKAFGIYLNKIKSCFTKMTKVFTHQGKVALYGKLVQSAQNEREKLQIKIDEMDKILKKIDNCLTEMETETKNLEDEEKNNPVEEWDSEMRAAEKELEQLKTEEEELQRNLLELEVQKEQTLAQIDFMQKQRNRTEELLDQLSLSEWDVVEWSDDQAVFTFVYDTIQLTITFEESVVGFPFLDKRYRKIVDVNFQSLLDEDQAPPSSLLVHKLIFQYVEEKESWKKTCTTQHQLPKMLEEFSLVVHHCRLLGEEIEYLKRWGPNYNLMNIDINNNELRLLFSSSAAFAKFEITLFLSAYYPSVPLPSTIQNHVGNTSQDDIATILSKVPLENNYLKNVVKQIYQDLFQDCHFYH
UniProt O14777: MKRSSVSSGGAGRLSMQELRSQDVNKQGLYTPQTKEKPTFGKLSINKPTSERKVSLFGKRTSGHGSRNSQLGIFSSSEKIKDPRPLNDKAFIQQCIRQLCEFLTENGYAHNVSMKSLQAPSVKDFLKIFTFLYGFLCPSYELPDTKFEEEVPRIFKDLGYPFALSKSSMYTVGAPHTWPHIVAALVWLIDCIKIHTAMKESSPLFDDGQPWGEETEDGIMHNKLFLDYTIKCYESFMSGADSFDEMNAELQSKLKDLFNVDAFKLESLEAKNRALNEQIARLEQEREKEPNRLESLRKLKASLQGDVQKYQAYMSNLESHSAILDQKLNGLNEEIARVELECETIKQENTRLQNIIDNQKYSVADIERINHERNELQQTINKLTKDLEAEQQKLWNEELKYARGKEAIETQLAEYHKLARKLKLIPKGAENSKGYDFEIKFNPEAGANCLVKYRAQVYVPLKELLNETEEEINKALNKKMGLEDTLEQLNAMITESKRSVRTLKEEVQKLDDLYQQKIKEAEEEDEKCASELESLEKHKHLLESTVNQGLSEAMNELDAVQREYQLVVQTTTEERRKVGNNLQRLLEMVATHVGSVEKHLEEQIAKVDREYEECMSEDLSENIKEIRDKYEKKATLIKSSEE

Targets include GFP-NSL1^WT (human) (UniProt Q96IY1); GFP-NSL1^Y270A (human) (UniProt Q96IY1); GFP-NSL1^2TD (human) (UniProt Q96IY1); GFP-NSL1^2TA (human) (UniProt Q96IY1).
What all share (experiment): co-IP

As to KNL1 (from UniProt Q8NG31 1-2342), the binding result in the assay with GFP-NSL1^WT (human) was “binds”; in the assay with GFP-NSL1^Y270A (human) it was “no binding”; with GFP-NSL1^2TD (human), “binds”; with GFP-NSL1^2TA (human) it was “binds”.
Regarding HEC1 (from UniProt O14777 1-642), the results for the binding result with GFP-NSL1^WT (human) and with GFP-NSL1^Y270A (human) were “binds” and “no binding”, respectively.

The record behind these values is doi:10.1101/2023.05.10.540295.
